Not every detail of the peptide structures is certain; ends, links or a residue may be inferred. Some compounds share one wording; it may come from a single statement. Bridge positions count the residues as written; N and C are the ends. Square brackets hold non-standard residues; d marks the D form. Ends that are not written are not given here. I, II: the chains in the order shown. βAla = NCCC(=O)O
Columns and labels:
HIV-1MN = assay: Syncytia formation blockage (chronically infected cells incubated with MBPCs, uninfected Molt-4 cells added); format: cell-based; parameters: key: -: The presence of syncytia is indicated by + signs, allocated in approximate proportion to the quantities counted.; The presence of syncytia is indicated by + signs, allocated in approximate proportion to the quantities counted.; ++: The presence of syncytia is indicated by + signs, allocated in approximate proportion to the quantities counted.; +++: The presence of syncytia is indicated by + signs, allocated in approximate proportion to the quantities counted.; ++++: The presence of syncytia is indicated by + signs, allocated in approximate proportion to the quantities counted; settings: counted after 18 hours
[1] = tested on: Peripheral blood lymphocytes (PBL); assay: PBL antigen and mitogen induced proliferation ([3H]thymidine incorporation); format: cell-based, human; settings: MBPCs 5x10^-6M
[2] = tested on: RT-deficient HIV-I(IIIB) isolate; assay: Inhibition of HIV-I induced cell fusion (8E5 cells co-cultivated with PHA stimulated human PBLs); format: cell-based; settings: for Inhibition of HIV-I induced cell fusion (number of syncytia): after 24 hours
Text: 50 x 10^3 8E5 cells chronically infected with a RT-deficient HIV-I(IIIB) isolate, were co-cultivated with 150 x 10^3 phytohemagglutinin (PHA) stimulated human peripheral blood lymphocytes (PBLs) in the presence of the indicated peptide in 96-well plates. The MBPCs used are described by the peptides attached, and the number thereof, to a core lysine matrix, which is designated MLC. All amino acids used for this experiment were in dextro form.

HIV-1 or HIV-2 = assay: Infection of human PBLs (RT activity, p24gag); format: cell-based; settings: MBPC 10^-5M; days 10 and 13 after infection; culture supernatants
HIV-1Lai = assay: Syncytia formation blockage (chronically infected cells incubated with MBPCs, uninfected Molt-4 cells added); format: cell-based; parameters: key: -: The presence of syncytia is indicated by + signs, allocated in approximate proportion to the quantities counted.; The presence of syncytia is indicated by + signs, allocated in approximate proportion to the quantities counted.; ++: The presence of syncytia is indicated by + signs, allocated in approximate proportion to the quantities counted.; +++: The presence of syncytia is indicated by + signs, allocated in approximate proportion to the quantities counted.; ++++: The presence of syncytia is indicated by + signs, allocated in approximate proportion to the quantities counted; settings: counted after 18 hours
HIV = assay: Inhibition of HIV infection of CD4+ cells and of HIV induced syncytia formation (text summary, strains not separated); format: cell-based, HIV-1 and HIV-2
HIV-2 = assay: Infection of human PBLs; format: cell-based; settings: MBPC 10^-5M
HIV-2Rod = assay: Syncytia formation blockage (chronically infected cells incubated with MBPCs, uninfected Molt-4 cells added); format: cell-based; parameters: key: -: The presence of syncytia is indicated by + signs, allocated in approximate proportion to the quantities counted.; The presence of syncytia is indicated by + signs, allocated in approximate proportion to the quantities counted.; ++: The presence of syncytia is indicated by + signs, allocated in approximate proportion to the quantities counted.; +++: The presence of syncytia is indicated by + signs, allocated in approximate proportion to the quantities counted.; ++++: The presence of syncytia is indicated by + signs, allocated in approximate proportion to the quantities counted; settings: counted after 18 hours
HIV-1(89.6) = assay: Infection of and syncytia formation in human primary macrophages; format: cell-based; settings: for infection of macrophages (in words): MBPC 5x10^-5M, 10,000 TCID50, 4 days post-infection
Text: Mononuclear cells were isolated from leukophoresis units enriched for monocytes by Ficoll-Hypaque density separation. Macrophages were purified by adherence to plastic in RPMI 1640 supplemented with 10% fetal calf serum and 5% human AB serum. […] After thorough washing, the cells were fed again with medium and analyzed for HIV-1 p24^gag production and syncytia formation 4 days post-infection.

[3] = tested on: HIV-1(LAI), HIV-1(NDK) or HIV-2(ROD); assay: Infection of HT-29 cells through the GalCer receptor; format: cell-based; settings: MBPCs 5x10^-6M
[4] = tested on: HIV-1 (LAI), HIV-1 (NDK) or HIV-2(ROD) chronically infected T-lymphblastoid CEM cells; assay: Fusion between chronically infected CEM cells and MT-2 cells; format: cell-based; settings: separate tests
GalCer = assay: HPTLC binding assay: binding of gp120 to GalCer; settings: MBPCs 10^-4M in the HPTLC assay
[5] = Donor 2, Cand1 (first line), control 28000
[6] = Donor 2, Cand1 (second line), control 13000

Molecule	Syncytia formation (HIV-1MN; MBPC Conc. 5x10^-6M)	Syncytia formation (HIV-1MN; MBPC Conc. 10^-6M)	Syncytia formation (HIV-1MN; MBPC Conc. 10^-7M)	[^3H]thymidine incorporation ([1]; Donor 1, Cand1, control 74000)	[^3H]thymidine incorporation ([1]; Donor 1, Cand2, control 79000)	[^3H]thymidine incorporation ([1]; Donor 1, PPD1, control 1200)	[^3H]thymidine incorporation ([1]; Donor 1, PPD2, control 1500)	[^3H]thymidine incorporation [1, 5]	[^3H]thymidine incorporation [1, 6]	[^3H]thymidine incorporation ([1]; Donor 2, PHA1, control 115000)	[^3H]thymidine incorporation ([1]; Donor 2, PHA2, control 112000)	[^3H]thymidine incorporation ([1]; Donor 2, PPD1, control 38000)	[^3H]thymidine incorporation ([1]; Donor 2, PPD2, control 33000)	[^3H]thymidine incorporation ([1]; Donor 3, Cand1, control 3900)	[^3H]thymidine incorporation ([1]; Donor 3, Cand2, control 1700)	[^3H]thymidine incorporation ([1]; Donor 3, PHA1, control 203000)	[^3H]thymidine incorporation ([1]; Donor 3, PHA2, control 183000)	[^3H]thymidine incorporation ([1]; Donor 3, PPD1, control 5900)	[^3H]thymidine incorporation ([1]; Donor 3, PPD2, control 3200)	Inhibition of HIV-I induced cell fusion (number of syncytia) ([2]; Concentration (M) 5 x10^-6)	other results
I: RKSIHIGPGRAFYTKK[βAla] / II: RKSIHIGPGRAFYTK / III: RKSIHIGPGRAFYT / IV: RKSIHIGPGRAFYT (amide I:15-IV:C, I:16-II:C, II:15-III:C) [MBPC.5]	-	++	++++	80000 cpm	85000 cpm	1300 cpm	2100 cpm	15000 cpm	9000 cpm	115000 cpm	111000 cpm	24000 cpm	26000 cpm	3700 cpm	1100 cpm	228000 cpm	188000 cpm	4000 cpm	2400 cpm	- (- indicates the total absence of syncytia in the well)	Inhibition of HIV-I induced cell fusion (number of syncytia) ([2]; Concentration (M) 5x10^-7): +++; inhibition of syncytia formation (in words) ([2]; concentration of 5x10^-6M): able to inhibit syncytia formation; RT activity lower in MBPC-treated samples than control samples (HIV-1 or HIV-2): more than 90%; Syncytia formation (HIV-1Lai; MBPC Conc. 5x10^-6M): -; Syncytia formation (HIV-1Lai; MBPC Conc. 10^-6M): +; Syncytia formation (HIV-1Lai; MBPC Conc. 10^-7M): ++++; in vitro inhibiting effect on syncytia formation induced by HIV (in words) (HIV): inhibiting effect at a slightly higher concentration; inhibition of HIV-2 infection (HIV-2): less potent than [GPGRAF]8-MLC; Syncytia formation (HIV-2Rod; MBPC Conc. 5x10^-6M): -; Syncytia formation (HIV-2Rod; MBPC Conc. 10^-6M): -; Syncytia formation (HIV-2Rod; MBPC Conc. 10^-7M): +; infection of macrophages (in words) (HIV-1(89.6)): able to inhibit infection
C[C@H](NC(=O)[C@H](CCCNC(=N)N)NC(=O)CNC(=O)[C@@H]1CCCN1C(=O)CN)C(=O)N[C@@H](Cc1ccccc1)C(=O)NCCCC[C@H](NC(=O)[C@H](Cc1ccccc1)NC(=O)[C@H](C)NC(=O)[C@H](CCCNC(=N)N)NC(=O)CNC(=O)[C@@H]1CCCN1C(=O)CN)C(=O)NCCCC[C@H](NC(=O)[C@H](CCCCNC(=O)[C@H](Cc1ccccc1)NC(=O)[C@H](C)NC(=O)[C@H](CCCNC(=N)N)NC(=O)CNC(=O)[C@@H]1CCCN1C(=O)CN)NC(=O)[C@H](Cc1ccccc1)NC(=O)[C@H](C)NC(=O)[C@H](CCCNC(=N)N)NC(=O)CNC(=O)[C@@H]1CCCN1C(=O)CN)C(=O)NCCCC[C@H](NC(=O)[C@H](CCCCNC(=O)[C@H](CCCCNC(=O)[C@H](Cc1ccccc1)NC(=O)[C@H](C)NC(=O)[C@H](CCCNC(=N)N)NC(=O)CNC(=O)[C@@H]1CCCN1C(=O)CN)NC(=O)[C@H](Cc1ccccc1)NC(=O)[C@H](C)NC(=O)[C@H](CCCNC(=N)N)NC(=O)CNC(=O)[C@@H]1CCCN1C(=O)CN)NC(=O)[C@H](CCCCNC(=O)[C@H](Cc1ccccc1)NC(=O)[C@H](C)NC(=O)[C@H](CCCNC(=N)N)NC(=O)CNC(=O)[C@@H]1CCCN1C(=O)CN)NC(=O)[C@H](Cc1ccccc1)NC(=O)[C@H](C)NC(=O)[C@H](CCCNC(=N)N)NC(=O)CNC(=O)[C@@H]1CCCN1C(=O)CN)C(=O)NCCC(=O)O [MBPC.3, (GPGRAF)8-(K)4-(K)2-K-βA-OH]	-	+	+++	87000 cpm	100000 cpm	1300 cpm	3100 cpm	17000 cpm	11000 cpm	87000 cpm	95000 cpm	24000 cpm	27000 cpm	3200 cpm	1200 cpm	162000 cpm	154000 cpm	3900 cpm	3100 cpm	- (- indicates the total absence of syncytia in the well)	Inhibition of HIV-I induced cell fusion (number of syncytia) ([2]; Concentration (M) 5x10^-5): - (- indicates the total absence of syncytia in the well); Inhibition of HIV-I induced cell fusion (number of syncytia) ([2]; Concentration (M) 5x10^-7): ±; inhibition of syncytia formation (in words) ([2]; concentration as low as 5x10^-7M): marked inhibition; infectivity of HIV on human colon cells (HT-29) [3]: completely block; RT activity lower in MBPC-treated samples than control samples (HIV-1 or HIV-2): more than 90%; Syncytia formation (HIV-1Lai; MBPC Conc. 5x10^-6M): -; Syncytia formation (HIV-1Lai; MBPC Conc. 10^-6M): +; Syncytia formation (HIV-1Lai; MBPC Conc. 10^-7M): ++++; MBPC concentrations with which inhibiting effects were observed in vitro (HIV; syncytia formation induced by HIV / HIV infection of CD4^+ cells): around 10^-6 M; fusion between chronically infected CEM cells and HTLV-I-transformed MT-2 cells [4]: able to block the fusion; binding to the GalCer receptor / inhibition of gp120 binding to GalCer (GalCer): bind; Syncytia formation (HIV-2Rod; MBPC Conc. 5x10^-6M): -; Syncytia formation (HIV-2Rod; MBPC Conc. 10^-6M): -; Syncytia formation (HIV-2Rod; MBPC Conc. 10^-7M): +; infection of macrophages (in words) (HIV-1(89.6)): able to inhibit infection; syncytia (giant cells) in macrophage cultures (HIV-1(89.6); pretreated with MBPC, FIG.4B): very few giant cells

— EP0719281B1, “MULTIPLE BRANCH PEPTIDE CONSTRUCTIONS FOR USE AGAINST HIV” (priority 1993, dated 1995)
